Results are given in words; binding and its absence hold for the method and conditions named. Binding seen in cells or lysates may run through a third protein.
Molecular target: Forkhead box O1 (FOXO1) (mouse (endogenous in AML12)), Q9R1E0
Test: co-IP
Settings: remark: other sources report otherwise

B1: SMAD3, Q8BUN5 1-425 (protein)
chain: MSSILPFTPPIVKRLLGWKKGEQNGQEEKWCEKAVKSLVKKLKKTGQLDELEKAITTQNVNTKCITIPRSLDGRLQVSHRKGLPHVIYCRLWRWPDLHSHHELRAMELCEFAFNMKKDEVCVNPYHYQRVETPVLPPVLVPRHTEIPAEFPPLDDYSHSIPENTNFPAGIEPQSNIPETPPPGYLSEDGETSDHQMNHSMDAGSPNLSPNPMSPAHNNLDLQPVTYCEPAFWCSISYYELNQRVGETFHASQPSMTVDGFTDPSNSERFCLGLLSNVNRNAAVELTRRHIGRGVRLYYIGGEVFAECLSDSAIFVQSPNCNQRYGWHPATVCKIPPGCNLKIFNNQEFAALLAQSVNQGFEAVYQLTRMCTIRMSFVKGWGAEYRRQTVTSTPCWIELHLNGPLQWLDKVLTQMGSPSIRCSSVS
binding: no binding

Reference: doi:10.1101/2023.01.12.523351
